According to PubChem BioAssay AID1794845 (National Center for Advancing Translational Sciences (NCATS), 2023):
Among all 6,900 compounds or so, fewer than 10 were called active. The call rests on the fitted dose curve; in most records, active means well fitted curve in the direction sought with a large enough effect; inconclusive means small, poorly fitted or top-dose-only effect, or another doubt; inactive means no such curve, though single readings can be large or run the other way. This is one part of the list.

Amino acid sequences for entries named in this document (tags omitted). A change or cut given only in a name is not applied to a line headed by its entry.
UniProt C7C422: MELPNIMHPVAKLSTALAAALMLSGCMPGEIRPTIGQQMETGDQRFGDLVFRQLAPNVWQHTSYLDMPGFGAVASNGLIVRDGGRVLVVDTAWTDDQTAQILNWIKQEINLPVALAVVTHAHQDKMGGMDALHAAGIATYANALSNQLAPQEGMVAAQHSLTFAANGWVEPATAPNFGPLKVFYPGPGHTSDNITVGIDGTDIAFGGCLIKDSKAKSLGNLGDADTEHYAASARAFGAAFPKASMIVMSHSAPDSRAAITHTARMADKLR

Target: Metallo-beta-lactamase type 2 (Klebsiella pneumoniae) (UniProt C7C422)
Assay: qHTS to identify inhibitors of the New Delhi Metallo-beta-lactamase (NDM): primary screen against the NCATS Gemini Collection; further: % of control where 0% means no effect
Settings: NDM-1 enzyme, meropenem hydrolysis, absorbance 300 nm; at 38.4 µM (top of the series) unless noted
Method in brief: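 NDM-1 at 2 nM final in 50 mM HEPES pH 7.0, 1 uM ZnSO4, 0.01% Tween20, preincubated >30 min with compound. Meropenem 50 uM final added; absorbance at 300 nm after 30 min.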

Activity % (negative = inhibition), inactive:
CC(C)N(C(=O)c1ccccc1-c1ccc(CS(C)(=O)=O)cn1)C(C)C 10.1%, COCCN1C(=O)N(C)C(=O)C12CCN(CCCOc1ccc(F)cc1)C2 (stereo unspecified) -0.278%, COc1ncccc1-c1cc(-c2cn[nH]c2)c2cncn2c1 18.6% [at 77.1 µM], COc1cccc(C(=O)NC2CCN(c3nnc4ccccn34)CC2)c1 1.51%, C1=C(c2cc(-c3ccncc3)cn3cncc23)CCOC1 6.7% [at 77.1 µM], O=C(NCc1cccnc1)C1CN(S(=O)(=O)c2ccccc2)CC12CCCCC2 (stereo unspecified) 55.9%, COCCOCc1nc(C2CCNCC2)no1 11.5%, N#Cc1ccc(CN2C[C@@H](CO)[C@H](NC(=O)c3ccccc3)C2)cc1 -1.44%, Cc1ccc(CN2CCC(CNC(=O)NC(C)C)C2)cc1C (stereo unspecified) -15.1%, O=S(=O)(NCC1CN(CC2CC2)CC12CCCCC2)c1cccs1 (stereo unspecified) -3.18%, CNC(=O)c1cc(C2CC2)nc2onc(C3CCCN3C(=O)NC(C)c3ccccc3)c12 (stereo unspecified) 13%, COc1ccc(NC2CCCN(C(=O)c3cn(CCCN)nn3)C2)cc1 (stereo unspecified) 4.13%, COc1cccc(-c2cc(C(=O)NCc3c(C)cc(C)[nH]c3=O)c3c(c2)N(C(C)C)CCO3)c1OC 10.7%, O=C(c1ccccc1Cl)N1CCc2c(nc3cc(-c4ccccc4)[nH]n3c2=O)C1 6.91%, CCN(Cc1noc(C2CCC2)n1)C(=O)CC1C(=O)NCCN1CC(C)C (stereo unspecified) 0.368%, Cc1cccc(CN2CCN3C(=O)N(Cc4ccc(F)cc4)C[C@H]3C2)n1 0.107% [at 57.5 µM], O=C1Cc2c(-c3ccccc3OCc3ccccc3)n[nH]c2CN1Cc1ccccn1 9.35% [at 57.5 µM], Cc1ccc([S+](=O)([O-])N2CCCC(N3C(=O)c4c(c(C)nn4-c4ccccc4)C3C)C2)cc1 (stereo unspecified) -1.4%, COCCN1CCCC2(CCN(C(=O)c3ccc(Cl)s3)C2)C1=O (stereo unspecified) 2.27%, O=C(Cc1ccsc1)N1CCC2(CC1)N=C(c1cccc(Br)c1)NO2 8.23%, CCCc1ccc(CN2CCC(c3nnc(Cn4ccnc4)n3C3CC3)CC2)o1 0.81%, COc1ccc(CNC(=O)CCC2CCCN(C(=O)CCN3CCCCO3)C2)c(OC)c1 (stereo unspecified) 7.37%, COCCN1C(=O)N(C)C(=O)C12CCN(Cc1cc(F)ccc1F)C2 (stereo unspecified) 8.1%, O=C(O)[C@H]1C[C@@H](C(=O)NCc2cccnc2)CN(Cc2ccccn2)C1 43.1%, O=C(Cc1cccc(Cl)c1)N1CCC(C(=O)N2CCC(c3ccccc3)CC2)CC1 6.18%, COCc1noc([C@@H]2CC(F)(F)CN2C(=O)c2cnc(C)cn2)n1 -1.71%, COc1ccc(-c2nn(-c3ccccc3C)cc2CN2CCCN(C)CC2)cc1F -1.44%, CNC(=O)[C@@H](C1CC1)N1CCC[C@H]1C(=O)N1CCOCC1 -0.619% [at 57.5 µM], CNC(=O)C(C)(C)N1CCC[C@H]1C(=O)NCc1ccccc1 15.7% [at 57.5 µM], CC1=C[C@@H](CNC(=O)c2cnccn2)[C@H](C(C)C)C[C@H]1CC(=O)O 7.3% [at 57.5 µM], C[C@@H](NC(=O)[C@@H]1C[C@@H](NS(=O)(=O)c2cccs2)CCN1C(=O)c1ccco1)C(N)=O 19%, Cc1nn2c(N3CCC(O)C3)cc(-c3ccccc3)nc2c1C (stereo unspecified) -5.78%, O=C(c1ccc(C(F)(F)F)cc1)N1CCC2(CC1)COc1ccccc1NC2=O 1.41%, CSCC(=O)N[C@@H]1CN(Cc2cccnc2)C[C@H]1CN(C)C -2.17%, c1ccc(-c2cc(CC3(NCC4CC4)COC3)no2)nc1 26.6% [at 77.1 µM], Cc1nc(CC(=O)NC(C)c2cnn(-c3ccccc3)c2C)cs1 (stereo unspecified) 13.3%, COCc1nc(C2CCN(C(=O)NCC(C)C)C2)no1 (stereo unspecified) 14.6%, CCOc1ccccc1NC(=O)C1CCN(c2cnc3nccnc3c2)CC1 35.2%, CCn1ccnc1CN(C)c1cc(C2CC(N)C2)nc(COC)n1 (stereo unspecified) 0.701%, COc1cccc(C(=O)N2CCN(c3ccnc4ccnn34)CC2)c1 19% [at 57.5 µM], COCc1cc(NCCCNc2cccnc2)ncn1 14.6%, O=[S+]([O-])(c1ccncc1)c1nnn2c1nc(NCc1ccncc1)c1ccccc12 6.76%, O=C(NCc1cccnc1)c1nc(-c2ccc(Cl)cc2)c2ccccn12 54.9%, CC(=O)N1CC2(CCCCN2CC2CC2)Cc2ccccc21 (stereo unspecified) -5.57%, Cc1nnc2n1CCC(N(C)C(=O)CCc1ccccc1)CC2 (stereo unspecified) 7.55%, COc1cc2c(cc1NC(C)=O)C(c1ccc(Oc3ccccc3)nc1)CC(=O)N2 (stereo unspecified) -0.151%, CC1(COc2cccnc2)COc2ccc(C(=O)NCc3cccs3)cc2N1 (stereo unspecified) 12% [at 57.5 µM], Cc1cn2nnc(C(=O)N3CCC(C(=O)Nc4cccc(F)c4)CC3)c2c(=O)[nH]1 -2.5%, CCc1nnc([C@@H]2CC(F)(F)CN2C(=O)CCn2cccn2)o1 0.634%, Cc1ccccc1OC1(C(=O)O)CCN(c2ncccc2C(N)=O)CC1 23.5%, COc1ccc(CN2CCc3oc(C)c(C(=O)NC(C)Cn4ccc(C)n4)c3C2)cc1 (stereo unspecified) 3.8%, Oc1ccccc1-c1cc(C2=CCOCC2)c2cncn2c1 21.6% [at 77.1 µM], O=C(CNC(=O)c1ccccc1)NCc1nnc2ccc(-c3ccccc3)nn12 -0.0817%, O=S(=O)(NCCc1noc(-c2ccccc2)n1)c1ccc2c(c1)OCCO2 1.19%, Cc1ccc(-c2nccc(N3CCC(O)C3)n2)c(C)c1 (stereo unspecified) 8.92%, O=C(COc1ccc(-c2nnc3n2CCCC3)cc1)N1CCN(c2ccc(F)cc2)CC1 -6.71%, Cc1nn(Cc2ccccc2)c(C)c1[C@@H]1C=C[C@@H](NC(=O)c2cccs2)C1 2.42% [at 57.5 µM], Cn1c(CN2CCC(O)CC2)nnc1C1CCCN(Cc2ccccn2)C1 (stereo unspecified) 136%, CCn1cc(S(=O)(=O)N2CCC(Cc3nncn3C)C2)cn1 (stereo unspecified) -0.892%, COCCN1CC(CO)C2(CCN(Cc3cccc(OC)n3)CC2)C1 (stereo unspecified) -0.517%, N#CC1CCN(C(=O)C2CCN(C(=O)c3ccc(-c4cncnc4)cc3)CC2)CC1 -3.71%, COc1ccc2nc([C@H]3CCN(Cc4cccnc4)C3)[nH]c2c1 27.5% [at 57.5 µM], CS(=O)(=O)c1ccc(CN2C[C@H](O)C[C@H]2c2nc(C3CC3)no2)cc1 -0.414% [at 57.5 µM], CCCS(=O)(=O)N1CCC(c2noc(-c3cccnc3)n2)C1 (stereo unspecified) 4.2%, CNC(=O)[C@@H]1CN(C(=O)c2ccncc2)C[C@H]1CO -3.3%, Cc1nc(C)n(CCNC(=O)[C@H]2CNC[C@@H](C(=O)N3CCOCC3)C2)n1 -3.23%, O=C(NCc1nnc2n1C(C(=O)NCc1ccc(F)cc1)CC2)Nc1cccnc1 (stereo unspecified) -2.93%, C[C@H]1[C@@H]2[C@@H](O)C([C@H](C)C(=O)N3CCC(Cc4ccccc4)CC3)CC[C@@]2(C)CC[C@@H]1NC(=O)c1cnccn1 (stereo partly specified) -3.18%, CC1CCCN(c2ncnc3c2CN(c2ccc(Cl)cc2)C(=O)CN3C)C1 (stereo unspecified) 6.21%, CS(=O)(=O)c1ccc(S(=O)(=O)N2CCC3(CCCNC3)C2)cc1 (stereo unspecified) -1.25%, Cc1ccc(-n2nc(C)c([C@H]3C=C[C@@H](OC(=O)N[C@H](C)c4ccccc4)C3)c2C)cc1Cl 2.37%, CCCCSCc1cc(C(=O)N2CC(C)(C)C(C)(O)C2)oc1C (stereo unspecified) -1.04%, COc1ccccc1-n1cc(C(=O)N2CCCC2c2nonc2C)cn1 (stereo unspecified) -0.641%, Cc1ccc(S(=O)(=O)N2CCC(Oc3ncccc3C(=O)N(C)C)C2)cc1C (stereo unspecified) -0.853%, Cc1cccc(C(=O)N2CCCCCNC(=O)CC2c2ccccc2)c1 (stereo unspecified) 21.2%, CCOc1ccccc1NC(=O)N1CCCCCCNC(=O)CC1c1ccccc1 (stereo unspecified) 12.8%, O=C(NC1CCOCC1)c1cccc(S(=O)(=O)N2CCC[C@H]2CO)c1 6.92%, CSCCC(=O)N[C@H]1CN(c2cc(C3CC3)ncn2)C[C@@H]1C1CC1 2.74%, CN(C)C[C@@H]1CN(C2CCOCC2)C[C@H]1NC(=O)c1cc2ccccc2[nH]1 43.5%, O=C(CN1C(=O)CNC1=O)N[C@H](c1ccc2c(c1)CCO2)C1CC(O)C1 (stereo partly specified) 0.97%, CO[C@@H]1COCC[C@H]1NC(=O)c1cn(CCN2CCNCC2)nn1 28.6%, COC1CCCN(C(=O)c2cnc(Cc3c(Cl)cccc3Cl)[nH]c2=O)C1 (stereo unspecified) 3.91%, O=C([C@@H]1C[C@H](F)CN1S(=O)(=O)Cc1ccccc1)N1CCOCC1 4.38%, COCCCNc1nc(-c2cccnc2)nc2c1CNC2 39.4%, COc1ccc(-c2cnc([C@@H]3COCCN3Cc3nc4ccccc4n3C)[nH]2)cc1 92.2% [at 57.5 µM], CC(=O)N1CCc2nn(CC(=O)Nc3ccccc3C(C)C)c(=O)cc2C1 0.0883%
